Laboratory results: PMC11112747, “Cyanovirin-N Binding to N-Acetyl-D-glucosamine Requires Carbohydrate-Binding Sites on Two Different Protomers” (Biochemistry, 2024)

Assay: ITC binding of CV-N, CVN2 and variants to ManNAc
Conditions: one-set of sites model, T = 298 K
Protocol: Calorimetric titrations were carried out using an ITC200 device (Malvern Panalytical, Malvern, UK). The concentration of mutant E41T dimer and monomeric variants CVN-E41T or CVN-E41A was 200 μM titrant of these proteins to the ligands ManNAc and GlcNAc in the cell. […] The protein concentrations were 44 μM (304 μM) CVN2L0 and 465 μM CVN-E41T in the ManNAc experiments, respectively, and determined to be between 200 and 300 μM for the GlcNAc experiment. Aliquots (2 μL) of CV-N titrant were injected at 2 min intervals into the sugar solution in the calorimetry cell with a total of 19 injections from a stirring syringe (operated at 750 rpm). Controls were prepared with identical amounts of titrant injected into PBS buffer at pH 7.4 at 298 K, and control values were subtracted from the results of the actual experiments. The values for enthalpy, binding affinity, and stoichiometry from the binding curve and the free energy and entropy of interaction were calculated using Microcal Origin v7.0 (OriginLab, Northampton, Massachusetts, USA) according to the standard expressions: ΔG = −RTln Ka, and ΔG = ΔH–TΔS.

B1: CVN2: tandem-linked dimeric CVN2 with zero-linker length; tandem repeat of two CV-N molecules (protein, UniProt P81180 1-101, looked up)
Cyanovirin-N: LGKFSQTCYNSAIQGSVLTSTCERTNGGYNTSSIDLNSVIENVDGSLKWQPSNFIETCRNTQLAGSSELAAECKTRAQQFVSTKINLDDHIANIDGTLKYE
modifications: tandem repeat dimer, zero linker
notes: tandem-linked dimeric CVN2 with zero-linker length; tandem repeat of two CV-N molecules
In the case of B1, the stoichiometry is reported as 1.96 ± 0.024, the “enthalpy ΔH” value (PBS pH 7.4) is reported as “–68.3 ± 20.3 kcal/mol” and the “entropy TΔS” value (PBS pH 7.4) is reported as “–61.2 ± 21.08 kcal/mol”.
